Laboratory results as given in publication PMC12645055.

Chains of the proteins cited; added tags and fusions are not shown.
UniProt P50552: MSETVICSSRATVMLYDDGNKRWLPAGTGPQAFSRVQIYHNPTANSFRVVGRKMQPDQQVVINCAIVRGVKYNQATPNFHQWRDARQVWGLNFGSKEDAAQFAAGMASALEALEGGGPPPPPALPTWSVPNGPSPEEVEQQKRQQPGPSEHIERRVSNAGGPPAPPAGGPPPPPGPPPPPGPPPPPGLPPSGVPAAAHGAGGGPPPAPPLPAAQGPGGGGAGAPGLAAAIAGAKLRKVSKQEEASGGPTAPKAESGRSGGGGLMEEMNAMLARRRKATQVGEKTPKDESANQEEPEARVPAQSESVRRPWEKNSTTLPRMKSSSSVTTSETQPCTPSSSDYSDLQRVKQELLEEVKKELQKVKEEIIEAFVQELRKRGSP

Target: T1, FLAG-EMP1 (UniProt P54849)
T1 sequence: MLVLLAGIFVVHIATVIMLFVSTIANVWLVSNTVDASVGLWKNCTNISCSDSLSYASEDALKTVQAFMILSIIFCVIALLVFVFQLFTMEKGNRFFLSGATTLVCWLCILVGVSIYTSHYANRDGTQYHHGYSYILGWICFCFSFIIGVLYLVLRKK
Test: affinity purification with mass spectrometry; AsPC-1 overexpressing FLAG-EMP1; protein purified by anti-FLAG antibody, silver-stained SDS-PAGE, differing gel regions excised and analysed by LC-MS/MS; IgG as control

VASP (from UniProt P50552 1-380) was tested. Which binding did it give?
Its binding is “binds”.

No constants are given. Whether binding was seen depends on the method and setting. In cells and extracts the contact can be indirect. A yes stands for co-enrichment or nearness to the bait. Other partners may have been found. Sequences can lack the tags named with a protein.
